Test results taken from the supplement of paper PMC10849652.
This is one part of the list.

Amino acid sequences for entries named in this document (tags omitted). A change or cut given only in a name is not applied to a line headed by its entry.
UniProt Q9BVA0, whole entry, looked up: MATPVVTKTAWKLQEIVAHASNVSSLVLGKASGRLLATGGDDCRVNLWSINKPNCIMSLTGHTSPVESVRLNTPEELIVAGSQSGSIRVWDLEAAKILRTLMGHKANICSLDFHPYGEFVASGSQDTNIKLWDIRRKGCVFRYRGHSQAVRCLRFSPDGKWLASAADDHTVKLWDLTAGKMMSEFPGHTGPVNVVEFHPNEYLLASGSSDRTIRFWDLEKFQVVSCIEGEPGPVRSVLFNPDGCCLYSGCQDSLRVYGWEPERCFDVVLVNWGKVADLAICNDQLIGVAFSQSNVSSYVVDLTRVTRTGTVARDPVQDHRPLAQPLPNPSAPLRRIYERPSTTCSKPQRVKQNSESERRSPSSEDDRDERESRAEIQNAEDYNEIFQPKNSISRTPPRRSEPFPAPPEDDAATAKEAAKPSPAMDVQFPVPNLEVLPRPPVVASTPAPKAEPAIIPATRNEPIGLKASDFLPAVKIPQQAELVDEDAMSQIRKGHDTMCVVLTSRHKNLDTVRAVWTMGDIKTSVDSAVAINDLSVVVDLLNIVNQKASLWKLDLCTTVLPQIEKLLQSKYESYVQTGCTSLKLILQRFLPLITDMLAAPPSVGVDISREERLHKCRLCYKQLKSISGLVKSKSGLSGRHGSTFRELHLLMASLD
UniProt Q9UK76: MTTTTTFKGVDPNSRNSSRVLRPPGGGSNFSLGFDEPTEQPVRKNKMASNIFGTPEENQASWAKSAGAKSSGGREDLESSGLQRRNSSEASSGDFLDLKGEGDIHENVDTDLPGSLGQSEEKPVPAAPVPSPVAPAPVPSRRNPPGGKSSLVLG
UniProt P17535: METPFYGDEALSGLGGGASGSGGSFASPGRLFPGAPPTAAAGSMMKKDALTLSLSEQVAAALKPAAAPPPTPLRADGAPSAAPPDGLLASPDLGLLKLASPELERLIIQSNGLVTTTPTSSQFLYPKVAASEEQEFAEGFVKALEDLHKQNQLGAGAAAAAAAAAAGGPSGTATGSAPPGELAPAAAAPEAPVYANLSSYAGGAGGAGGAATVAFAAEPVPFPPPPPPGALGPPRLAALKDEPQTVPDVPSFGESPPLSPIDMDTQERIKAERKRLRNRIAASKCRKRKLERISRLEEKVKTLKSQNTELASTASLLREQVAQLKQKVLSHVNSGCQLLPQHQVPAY
UniProt Q8N371: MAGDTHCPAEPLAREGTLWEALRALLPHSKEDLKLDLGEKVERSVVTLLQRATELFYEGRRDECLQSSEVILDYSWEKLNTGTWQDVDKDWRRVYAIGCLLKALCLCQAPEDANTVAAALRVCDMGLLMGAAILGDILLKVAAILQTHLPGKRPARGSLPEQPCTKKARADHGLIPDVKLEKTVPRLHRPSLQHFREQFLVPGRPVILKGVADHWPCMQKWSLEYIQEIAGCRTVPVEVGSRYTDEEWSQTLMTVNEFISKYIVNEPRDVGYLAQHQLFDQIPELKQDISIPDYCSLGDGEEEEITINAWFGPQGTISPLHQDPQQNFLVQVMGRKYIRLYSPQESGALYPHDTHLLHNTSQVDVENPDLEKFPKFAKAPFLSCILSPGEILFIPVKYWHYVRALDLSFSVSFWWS
UniProt Q96SI1: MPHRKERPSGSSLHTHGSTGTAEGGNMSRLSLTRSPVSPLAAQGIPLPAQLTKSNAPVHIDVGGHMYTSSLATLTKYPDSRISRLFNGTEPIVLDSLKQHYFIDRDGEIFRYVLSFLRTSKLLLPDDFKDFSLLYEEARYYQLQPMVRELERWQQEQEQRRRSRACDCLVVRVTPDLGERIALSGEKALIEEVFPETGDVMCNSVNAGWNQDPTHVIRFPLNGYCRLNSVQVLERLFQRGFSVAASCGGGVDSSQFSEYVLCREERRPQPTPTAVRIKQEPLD
UniProt Q9Y597: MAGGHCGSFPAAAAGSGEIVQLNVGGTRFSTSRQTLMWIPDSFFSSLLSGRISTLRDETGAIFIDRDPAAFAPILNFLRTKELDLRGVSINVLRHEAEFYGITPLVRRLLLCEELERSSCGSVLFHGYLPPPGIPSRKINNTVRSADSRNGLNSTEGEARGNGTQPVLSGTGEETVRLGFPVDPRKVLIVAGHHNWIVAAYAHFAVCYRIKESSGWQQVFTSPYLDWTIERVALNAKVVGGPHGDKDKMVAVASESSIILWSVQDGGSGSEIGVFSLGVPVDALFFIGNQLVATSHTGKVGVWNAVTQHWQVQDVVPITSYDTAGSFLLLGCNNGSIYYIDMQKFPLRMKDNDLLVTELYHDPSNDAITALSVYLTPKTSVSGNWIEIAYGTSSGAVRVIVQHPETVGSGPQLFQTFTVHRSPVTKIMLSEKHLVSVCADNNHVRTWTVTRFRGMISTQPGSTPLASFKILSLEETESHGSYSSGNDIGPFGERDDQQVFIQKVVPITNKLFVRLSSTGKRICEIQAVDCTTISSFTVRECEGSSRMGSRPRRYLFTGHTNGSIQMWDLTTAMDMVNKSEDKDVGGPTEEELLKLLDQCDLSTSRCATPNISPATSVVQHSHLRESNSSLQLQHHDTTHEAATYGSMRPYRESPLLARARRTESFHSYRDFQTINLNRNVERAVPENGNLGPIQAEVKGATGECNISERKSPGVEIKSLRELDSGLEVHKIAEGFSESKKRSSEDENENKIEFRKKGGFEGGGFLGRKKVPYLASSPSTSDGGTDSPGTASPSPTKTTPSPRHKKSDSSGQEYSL
UniProt Q96AT1: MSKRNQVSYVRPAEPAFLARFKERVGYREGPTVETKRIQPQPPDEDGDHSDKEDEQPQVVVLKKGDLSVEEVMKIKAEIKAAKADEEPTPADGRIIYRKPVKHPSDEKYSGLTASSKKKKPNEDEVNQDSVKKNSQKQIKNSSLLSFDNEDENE
UniProt Q02241: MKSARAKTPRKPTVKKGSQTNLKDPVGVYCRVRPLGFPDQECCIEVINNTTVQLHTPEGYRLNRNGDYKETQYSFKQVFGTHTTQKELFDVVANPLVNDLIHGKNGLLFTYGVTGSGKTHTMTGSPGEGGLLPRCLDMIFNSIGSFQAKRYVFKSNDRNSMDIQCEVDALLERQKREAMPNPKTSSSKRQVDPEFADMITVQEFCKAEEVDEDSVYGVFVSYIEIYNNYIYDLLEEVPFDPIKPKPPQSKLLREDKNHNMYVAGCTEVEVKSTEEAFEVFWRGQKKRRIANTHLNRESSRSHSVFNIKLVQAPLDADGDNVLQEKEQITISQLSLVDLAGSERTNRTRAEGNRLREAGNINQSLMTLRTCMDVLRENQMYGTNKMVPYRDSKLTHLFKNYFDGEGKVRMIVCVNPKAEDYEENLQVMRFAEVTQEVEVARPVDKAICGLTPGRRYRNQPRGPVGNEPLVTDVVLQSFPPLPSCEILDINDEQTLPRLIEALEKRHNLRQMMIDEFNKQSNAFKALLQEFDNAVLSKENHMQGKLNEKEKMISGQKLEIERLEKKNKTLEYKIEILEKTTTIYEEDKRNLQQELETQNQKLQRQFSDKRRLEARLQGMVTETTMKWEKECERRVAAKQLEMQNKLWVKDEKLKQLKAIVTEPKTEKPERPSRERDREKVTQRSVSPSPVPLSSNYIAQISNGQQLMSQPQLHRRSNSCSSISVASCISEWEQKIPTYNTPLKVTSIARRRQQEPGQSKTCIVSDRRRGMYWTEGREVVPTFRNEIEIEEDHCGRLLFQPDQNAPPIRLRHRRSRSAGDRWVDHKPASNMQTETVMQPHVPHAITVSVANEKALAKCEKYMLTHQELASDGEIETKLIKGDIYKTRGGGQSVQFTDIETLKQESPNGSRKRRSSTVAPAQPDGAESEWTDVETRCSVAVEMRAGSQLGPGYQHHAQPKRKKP
UniProt Q9P206: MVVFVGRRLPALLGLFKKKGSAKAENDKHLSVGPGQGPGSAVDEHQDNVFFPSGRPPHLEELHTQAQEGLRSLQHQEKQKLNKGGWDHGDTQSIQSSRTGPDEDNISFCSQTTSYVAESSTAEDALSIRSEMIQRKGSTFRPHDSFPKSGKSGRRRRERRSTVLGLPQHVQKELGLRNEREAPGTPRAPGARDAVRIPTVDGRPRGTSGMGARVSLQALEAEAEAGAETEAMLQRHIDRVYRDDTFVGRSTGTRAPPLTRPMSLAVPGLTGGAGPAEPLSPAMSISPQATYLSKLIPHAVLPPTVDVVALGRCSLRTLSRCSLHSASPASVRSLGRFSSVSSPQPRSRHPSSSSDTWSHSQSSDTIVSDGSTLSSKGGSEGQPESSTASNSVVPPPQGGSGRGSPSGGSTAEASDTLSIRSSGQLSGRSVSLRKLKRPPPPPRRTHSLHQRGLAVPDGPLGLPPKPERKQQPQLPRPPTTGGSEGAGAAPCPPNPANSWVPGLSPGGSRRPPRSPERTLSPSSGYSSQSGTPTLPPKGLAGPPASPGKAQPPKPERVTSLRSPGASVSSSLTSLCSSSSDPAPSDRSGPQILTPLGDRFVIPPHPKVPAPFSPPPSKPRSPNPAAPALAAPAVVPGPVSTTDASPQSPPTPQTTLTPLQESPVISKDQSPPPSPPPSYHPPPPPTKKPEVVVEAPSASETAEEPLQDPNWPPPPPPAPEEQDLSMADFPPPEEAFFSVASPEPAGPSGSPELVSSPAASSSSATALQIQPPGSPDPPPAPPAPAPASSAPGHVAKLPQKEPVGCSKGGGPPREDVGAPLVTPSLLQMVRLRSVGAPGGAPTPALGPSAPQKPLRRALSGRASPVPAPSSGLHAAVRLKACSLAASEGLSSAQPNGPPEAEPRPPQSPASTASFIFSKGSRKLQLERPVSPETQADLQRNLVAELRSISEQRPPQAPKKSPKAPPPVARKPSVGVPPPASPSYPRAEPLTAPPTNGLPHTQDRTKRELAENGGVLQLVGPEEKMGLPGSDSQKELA
UniProt Q9Y6Y0: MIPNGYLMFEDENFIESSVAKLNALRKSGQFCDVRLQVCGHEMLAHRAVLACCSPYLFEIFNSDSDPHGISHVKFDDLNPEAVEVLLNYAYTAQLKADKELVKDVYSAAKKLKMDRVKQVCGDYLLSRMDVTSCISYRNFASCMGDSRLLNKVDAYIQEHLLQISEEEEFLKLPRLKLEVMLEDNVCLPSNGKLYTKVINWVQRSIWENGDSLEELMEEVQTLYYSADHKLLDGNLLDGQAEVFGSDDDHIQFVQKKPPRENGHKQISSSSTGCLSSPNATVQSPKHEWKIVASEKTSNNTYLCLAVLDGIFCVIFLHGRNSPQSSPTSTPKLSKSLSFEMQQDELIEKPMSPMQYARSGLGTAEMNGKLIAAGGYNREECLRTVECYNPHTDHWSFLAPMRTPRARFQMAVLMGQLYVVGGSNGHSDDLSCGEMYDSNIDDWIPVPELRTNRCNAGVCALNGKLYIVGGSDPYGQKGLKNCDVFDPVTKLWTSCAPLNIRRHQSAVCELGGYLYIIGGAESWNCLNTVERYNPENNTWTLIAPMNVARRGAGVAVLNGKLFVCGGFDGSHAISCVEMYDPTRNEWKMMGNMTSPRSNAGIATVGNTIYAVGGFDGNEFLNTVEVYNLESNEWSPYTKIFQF
UniProt Q8IZA0: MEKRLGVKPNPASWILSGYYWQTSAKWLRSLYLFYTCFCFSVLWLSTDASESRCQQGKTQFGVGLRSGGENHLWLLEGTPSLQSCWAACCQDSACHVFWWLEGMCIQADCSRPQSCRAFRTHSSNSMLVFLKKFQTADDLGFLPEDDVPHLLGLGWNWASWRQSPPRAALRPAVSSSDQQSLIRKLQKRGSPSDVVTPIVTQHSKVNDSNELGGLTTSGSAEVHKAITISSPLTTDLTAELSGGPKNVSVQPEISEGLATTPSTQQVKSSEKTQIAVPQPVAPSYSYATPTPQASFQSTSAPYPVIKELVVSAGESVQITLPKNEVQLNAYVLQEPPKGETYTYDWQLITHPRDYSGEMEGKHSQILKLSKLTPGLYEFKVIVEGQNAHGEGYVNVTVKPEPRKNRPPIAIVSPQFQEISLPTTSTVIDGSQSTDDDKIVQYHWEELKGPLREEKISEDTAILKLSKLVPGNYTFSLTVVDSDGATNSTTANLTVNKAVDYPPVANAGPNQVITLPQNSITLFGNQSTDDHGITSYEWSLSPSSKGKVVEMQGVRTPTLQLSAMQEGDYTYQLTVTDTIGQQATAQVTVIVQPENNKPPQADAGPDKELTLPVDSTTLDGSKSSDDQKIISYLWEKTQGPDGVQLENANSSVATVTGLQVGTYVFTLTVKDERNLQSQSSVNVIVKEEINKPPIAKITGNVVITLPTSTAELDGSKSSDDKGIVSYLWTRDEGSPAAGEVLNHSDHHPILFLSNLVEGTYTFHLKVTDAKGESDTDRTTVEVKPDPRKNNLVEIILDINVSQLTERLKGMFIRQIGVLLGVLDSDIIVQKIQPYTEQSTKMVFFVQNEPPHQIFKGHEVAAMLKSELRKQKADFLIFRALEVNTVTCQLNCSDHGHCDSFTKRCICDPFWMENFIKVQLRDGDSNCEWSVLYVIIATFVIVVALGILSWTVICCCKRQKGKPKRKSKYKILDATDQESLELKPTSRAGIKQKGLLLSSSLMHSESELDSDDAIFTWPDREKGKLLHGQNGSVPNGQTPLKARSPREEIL

The targets below were run with CCN(CCCOc1ccc2c(Nc3cc(CC(=O)Nc4cccc(F)c4)[nH]n3)ncnc2c1)CCOP(=O)(O)O [barasertib] (assay: log2 fold change, soluble protein after heating vs DMSO (PISA); higher = thermal stabilisation; K562 cells, 10 uM, 30 min; active = over 0.2 and 3.5 SD of the protein, either way, in both replicates (recomputed)).
Outline: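 Soluble protein was quantified by TMTpro 16plex LC-MS/MS after channel sums were equalised. It was obtained as the supernatant after 21,000xg for 90 min from pooled aliquots of K562 cells (2×10^6 cells/mL, 10 μM compound, 30 min) heated for 3 min across 48°C-58°C and extracted in PBS with 0.5% NP-40 at 4°C. Thermal stability values are relative to control samples and come from duplicates. They are given as log2 fold changes.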

log2 fold change, inactive:
KATNB1 (UniProt Q9BVA0) 0.002, KMT2D isoform 3 (UniProt O14686) 0.072, KCMF1 (UniProt Q9P0J7) -0.086, JPT1 (UniProt Q9UK76) 0.023, JUND (UniProt P17535) -0.016, JMJD1C (UniProt Q15652) 0.055, KDM8 isoform 3 (UniProt Q8N371) 0.013, JAGN1 (UniProt Q8N5M9) -0.031, KIDINS220 (UniProt Q9ULH0) 0.004, KCTD15 (UniProt Q96SI1) 0.038, KCTD3 (UniProt Q9Y597) -0.004, KIAA1143 (UniProt Q96AT1) 0.009, KHK isoform 2 (UniProt P50053) 0.041, KIF23 (UniProt Q02241) 0.082, KIAA1522 isoform 2 (UniProt Q9P206) 0.005, KLF3 (UniProt P57682) 0.058, KIF2A isoform 4 (UniProt O00139) -0.021, KIF5A (UniProt Q12840) 0.039, IVNS1ABP (UniProt Q9Y6Y0) 0.041, KPNA3 (UniProt O00505) -0.006, KIAA0319L (UniProt Q8IZA0) -0.006, KCNAB2 (UniProt Q13303) -0.037
